# Laboratory results as given in PMC3828283.
# Sequences of proteins named here, by UniProt entry; tags and fusion partners are left off. A change or cut given only in a name is not applied to a line headed by its entry. Residues count along the entry.
# UniProt P62136: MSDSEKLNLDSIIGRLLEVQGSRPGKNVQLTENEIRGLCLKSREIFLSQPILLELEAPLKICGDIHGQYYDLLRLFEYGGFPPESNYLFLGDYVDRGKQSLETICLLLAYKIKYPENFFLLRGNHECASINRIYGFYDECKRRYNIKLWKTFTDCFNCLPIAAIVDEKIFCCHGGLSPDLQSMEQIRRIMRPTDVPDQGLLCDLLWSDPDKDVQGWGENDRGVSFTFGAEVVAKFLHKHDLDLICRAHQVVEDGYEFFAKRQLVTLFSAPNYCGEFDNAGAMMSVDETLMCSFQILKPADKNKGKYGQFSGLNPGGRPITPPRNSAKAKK
# MBP-PP1 (amino acid 1-187): residues 1-187 of P62136
# MBP-PP1 (amino acid 163-330): residues 163-330 of P62136
# Results are given in words; binding and its absence hold for the method and conditions named. For some assays here: Binding seen in cells or lysates may run through a third protein. Some results given as binding are weak or reduced against the parent protein; the word gives no strength. For some assays here: Where a sequence is shown, tags or fusion partners need not be part of it.
# T1: GST-Inhibitor-1 G147D (human) (UniProt Q13522)
# T1 sequence: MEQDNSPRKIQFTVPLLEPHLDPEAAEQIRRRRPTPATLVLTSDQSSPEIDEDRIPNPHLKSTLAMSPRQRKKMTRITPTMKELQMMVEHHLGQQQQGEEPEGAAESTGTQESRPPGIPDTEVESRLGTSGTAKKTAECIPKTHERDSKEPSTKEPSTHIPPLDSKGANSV
# T2: GST-Hsp20 P20L (human) (UniProt O14558)
# T2 sequence: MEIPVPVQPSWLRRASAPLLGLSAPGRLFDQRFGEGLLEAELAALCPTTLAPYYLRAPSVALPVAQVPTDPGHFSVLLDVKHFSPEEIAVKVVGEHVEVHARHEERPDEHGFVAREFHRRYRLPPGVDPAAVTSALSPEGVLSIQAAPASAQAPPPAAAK
# T3: GST-Inhibitor-1 wild type (human) (UniProt Q13522)
# T3 sequence: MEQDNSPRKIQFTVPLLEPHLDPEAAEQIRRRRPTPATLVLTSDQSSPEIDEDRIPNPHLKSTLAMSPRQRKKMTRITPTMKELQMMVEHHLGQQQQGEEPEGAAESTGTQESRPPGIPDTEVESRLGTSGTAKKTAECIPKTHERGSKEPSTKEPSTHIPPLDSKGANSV
# T4: GST-Hsp20 wild type (UniProt O14558)
# T4 sequence: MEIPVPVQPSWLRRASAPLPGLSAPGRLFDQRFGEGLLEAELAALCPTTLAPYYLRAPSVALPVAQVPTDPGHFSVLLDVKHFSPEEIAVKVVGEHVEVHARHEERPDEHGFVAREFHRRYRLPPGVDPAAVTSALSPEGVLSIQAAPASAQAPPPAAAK
# T5: GM of cardiac homogenates (mouse (endogenous in cardiac homogenates)) (UniProt Q99MR9)
# T5 sequence: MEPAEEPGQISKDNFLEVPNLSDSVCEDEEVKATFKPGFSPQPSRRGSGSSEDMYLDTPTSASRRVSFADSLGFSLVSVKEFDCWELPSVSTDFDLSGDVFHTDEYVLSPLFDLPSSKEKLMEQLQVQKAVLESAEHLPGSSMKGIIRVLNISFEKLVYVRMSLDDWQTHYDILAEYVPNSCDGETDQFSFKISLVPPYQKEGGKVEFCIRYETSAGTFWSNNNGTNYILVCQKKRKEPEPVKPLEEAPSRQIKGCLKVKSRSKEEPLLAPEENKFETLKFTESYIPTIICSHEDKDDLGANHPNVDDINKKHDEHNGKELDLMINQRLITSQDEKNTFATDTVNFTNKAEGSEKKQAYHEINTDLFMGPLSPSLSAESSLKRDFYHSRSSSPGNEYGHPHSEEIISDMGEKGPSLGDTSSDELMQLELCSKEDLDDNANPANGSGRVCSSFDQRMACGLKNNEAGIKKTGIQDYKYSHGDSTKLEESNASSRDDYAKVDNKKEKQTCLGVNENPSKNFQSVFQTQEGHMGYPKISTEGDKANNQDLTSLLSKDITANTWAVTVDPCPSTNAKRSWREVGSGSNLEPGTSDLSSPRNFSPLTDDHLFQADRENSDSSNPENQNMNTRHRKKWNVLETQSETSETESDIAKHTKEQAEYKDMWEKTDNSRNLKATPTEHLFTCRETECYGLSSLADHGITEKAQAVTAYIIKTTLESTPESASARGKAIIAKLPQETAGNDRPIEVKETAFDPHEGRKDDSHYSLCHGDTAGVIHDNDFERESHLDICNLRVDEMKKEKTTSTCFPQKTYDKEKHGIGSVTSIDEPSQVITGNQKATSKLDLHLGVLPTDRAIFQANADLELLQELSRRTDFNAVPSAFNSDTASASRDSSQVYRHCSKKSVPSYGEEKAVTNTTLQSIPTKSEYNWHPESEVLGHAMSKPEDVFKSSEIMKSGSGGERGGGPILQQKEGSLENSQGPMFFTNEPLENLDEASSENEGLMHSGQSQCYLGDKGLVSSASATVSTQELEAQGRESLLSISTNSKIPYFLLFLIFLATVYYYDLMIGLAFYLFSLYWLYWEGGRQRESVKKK
# B1: native PLN protein of cardiac homogenates (protein, UniProt P61014 1-52)
# chain: MEKVQYLTRSAIRRASTIEMPQQARQNLQNLFINFCLILICLLLICIIVMLL
# Tests used:
# [1] = biological target: MBP-PP1 (amino acid 1-187) (UniProt P62136); experiment: far-Western, overlay or dot blot; purified MBP fusion proteins separated by SDS-PAGE, transferred to nitrocellulose and incubated with GST-PLN or GST-PP1 (aa1-330); probed with anti-GST; both purified
# [2] = biological target: MBP-PP1 (amino acid 163-330) (UniProt P62136); experiment: as above
# [3] = biological target: T1, GST-Inhibitor-1 G147D (human); experiment: far-Western, overlay or dot blot; equal amounts of GST-Inhibitor-1 or GST-Hsp20 proteins (wild type or variant, with or without PKA phosphorylation) separated by SDS-PAGE and incubated with MBP-PP1 (aa1-330); detection with MBP antibody; both purified
# GST-Hsp20 P20L (human) = biological target: T2, GST-Hsp20 P20L (human); experiment: as above
# [4] = biological target: T3, GST-Inhibitor-1 wild type (human); experiment: as above
# GST-Hsp20 wild type = biological target: T4, GST-Hsp20 wild type; experiment: as above
# [5] = biological target: T5, GM of cardiac homogenates (mouse (endogenous in cardiac homogenates)); experiment: co-IP; co-immunoprecipitation in PKA or non-PKA treated cardiac homogenates; data not shown
# [6] = biological target: T3, GST-Inhibitor-1 wild type (human); experiment: pull-down; GST or GST fusion protein bound to glutathione-Sepharose 4B mixed with 0.5 mg of mouse cardiac homogenates (untreated or treated beforehand with PKA) at 4°C for 16 h; 10 mM NaPO4 pH 7.2, 120 mM NaCl; western blot with PLN or PP1 antibody; only the target purified
molecule,measurement,setting,value
GST-PLN (amino acids 1-37) (from UniProt P26678 1-37) (domain or fragment),binding,[1],no binding
same,binding,[2],no binding
MBP-PP1 (aa1-330) (from UniProt P62136 1-330) (enzyme),binding,[3],binds
same,binding,GST-Hsp20 P20L (human),binds
same,binding,[4],binds
same,binding,GST-Hsp20 wild type,binds
B1,binding,[5],binds
same,binding,[6],no binding
